Reference: PubChem BioAssay AID1259266 (Sanger Institute, 2017)
The deposit covers 794 reagents; this is a part drawn at random. Over the whole deposit, 16 (2%) got an active call. 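Calls reflect knock-down alone, not drug synergy; viability seems capped at 1 and z-scores at 0.585.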 A number with no mark means an inactive call. Not given: the amount of reagent, the time to read-out.

Screen: 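Find knock-downs that kill LS123 cells or act with anchor drugs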 (primary screen)
Cell system: LS123 human colorectal cancer cells
Reagent: siRNA pool against human genes
Challenge: anchor drugs BYL719 (1 µM), cetuximab (5 µg/ml) or trametinib (10 nM), each chosen to barely slow growth alone; DMSO vehicle as the drug-free arm
Read-out: 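Replicate-averaged viability scaled to non-targeting pools, robust z-score for siRNA alone, and a synergy score per anchor drug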
Reading the numbers: robust z-score, knock-down alone: higher = more cells surviving after knock-down; viability, knock-down alone: higher = more viable cells; synergy score with trametinib and synergy score with BYL719 and synergy score with cetuximab: higher = stronger synthetic lethality with drug
Rule for the call: 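Essential when the robust z-score of the knock-down alone is below -3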
Meaning of the calls: active = essential (knock-down alone cuts viability); inactive = no change

gene knocked down	robust z-score, knock-down alone	viability, knock-down alone (fraction of control)	synergy score with trametinib	synergy score with BYL719	synergy score with cetuximab
EIF2AK1	0.585	1	-0.106	0.0672	-0.0122
STK25	0.585	1	-0.0166	-0.0477	0.0596
RNASEL	0.585	1	-0.1	-0.143	-0.0122
NUAK1	-1.76	0.861	0.000251	-0.0873	0.0999
AK2	0.585	1	-0.0289	-0.101	-0.0122
AK4	-0.303	0.947	-0.0985	-0.0993	-0.0643
FXR1	0.585	1	-0.093	-0.0728	-0.0122
TK2	0.0486	0.968	-0.0633	-0.13	-0.00139
ITPKC	0.585	1	-0.186	-0.104	-0.0122
MAP2K2	0.585	1	-0.144	-0.077	-0.0122
TGFBR1	0.089	0.971	-0.0445	-0.147	-0.0403
FGFR4	0.585	1	-0.0213	-0.114	-0.0111
FASTK	-0.337	0.945	-0.139	-0.15	-0.0663
EPHB6	0.51	0.996	-0.0544	-0.0335	-0.0166
RSKR	0.585	1	-0.0727	-0.0372	-0.0122
STKLD1	0.428	0.991	0.0608	0.0361	0.0701
CLK2	0.585	1	-0.0894	-0.0848	0.065
PFKP	0.585	1	0.0751	-0.00577	0.00404
GUK1	0.585	1	-0.11	-0.088	-0.0122
BPTF	0.13	0.973	-0.0116	0.0323	0.0212
EFNB3	-1.48	0.877	-0.034	-0.0676	-0.0952
CALM3	0.149	0.974	0.0692	-0.0138	0.00459
CALM2	-0.645	0.927	0.113	-0.0426	0.0168
MAPKAPK3	-2.39	0.824	-0.125	-0.0328	0.0373
ARAF	0.585	1	-0.0921	-0.111	-0.0122
CAMK2N1	-1.63	0.868	-0.126	-0.02	-0.119
AKT1	0.557	0.998	-0.0159	-0.084	0.0689
STK31	0.585	1	-0.0944	-0.1	-0.0122
TNK1	-0.392	0.942	-0.0468	-0.0107	-0.00915
PIP5K1B	-0.331	0.946	-0.0738	-0.14	-0.0438
SIK3	0.585	1	-0.185	-0.159	-0.0122
TCF12	-0.328	0.946	0.0107	-0.0781	-0.0148

Continued (6 carried over from the part before).
gene knocked down	robust z-score, knock-down alone	viability, knock-down alone (fraction of control)	synergy score with trametinib	synergy score with BYL719	synergy score with cetuximab
AKT1	0.557	0.998	-0.0159	-0.084	0.0689
STK31	0.585	1	-0.0944	-0.1	-0.0122
TNK1	-0.392	0.942	-0.0468	-0.0107	-0.00915
PIP5K1B	-0.331	0.946	-0.0738	-0.14	-0.0438
SIK3	0.585	1	-0.185	-0.159	-0.0122
TCF12	-0.328	0.946	0.0107	-0.0781	-0.0148
EXOSC10	0.585	1	-0.0461	-0.104	-0.0122
FN1	0.585	1	-0.152	-0.153	-0.0122
CHKB	0.0131	0.966	-0.172	-0.0947	-0.0458
SOS2	0.585	1	-0.000987	-0.103	0.0897
SYNCRIP	-1.59	0.871	0.0218	0.0351	0.0653
MAP3K6	0.585	1	-0.186	-0.159	-0.0122
PXK	0.585	1	-0.0928	-0.159	-0.0122
ITPK1	0.585	1	-0.0984	-0.0678	-0.0122
MGA	-1.2	0.894	-0.00279	-0.0637	0.0385
RET	0.585	1	-0.132	-0.0977	-0.0122
EPHA3	0.252	0.98	-0.000457	-0.0277	0.0487
CDK20	-1.3	0.888	0.0512	0.0502	0.0981
ULK1	0.585	1	-0.0129	-0.0788	-0.0122
FGFR1	0.585	1	-0.0683	-0.159	-0.0122
CSNK1G1	0.00806	0.966	-0.0483	0.0165	-0.0461
CHEK2	0.585	1	-0.0185	-0.0385	0.0161
IP6K2	0.253	0.98	-0.0468	-0.0637	-0.0288
DCLK2	-0.174	0.955	-0.128	-0.166	-0.035
PIP5K1A	-0.83	0.916	-0.0713	-0.0596	0.0132
PIK3C2A	-3	0.787	-0.0467	-0.137	0.0252
PIK3C2B	-0.0172	0.964	-0.0425	-0.0278	-0.0124
PFKFB3	0.585	1	-0.0103	-0.0935	-0.0122
CDKL1	0.585	1	0.0561	-0.0825	-0.0122
IRAK2	0.585	1	-0.161	-0.124	-0.0122
PAK5	-0.0906	0.96	-0.0768	-0.107	0.0462
AK3	0.585	1	-0.109	-0.0553	-0.0122
SMAD2	-0.655	0.926	-0.0738	-0.0814	-0.0489
DLG1	0.585	1	0.0327	-0.132	-0.0122
TSKS	0.585	1	-0.0298	-0.0959	-0.0122
PANK2	0.585	1	-0.0833	-0.084	-0.0122
CSNK1A1L	0.585	1	-0.0206	-0.0746	-0.0122
